According to the supplement of paper PMC10331698:
± gives the standard deviation of the averaged measurements. Small differences around the control level are noise.

Assays:
Experiment in all cases: level (log10 ratio to DMSO vehicle control); higher = higher biomarker level / cell amount than vehicle control
[1] = compound: O=P(O)(O)CCC(F)(F)C(F)(F)C(F)(F)C(F)(F)C(F)(F)C(F)(F)C(F)(F)C(F)(F)F [((Perfluorooctyl)ethyl)phosphonic acid]; details: 2200 nM; in DMSO
Experimental: (§1)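 BioMAP Diversity Plus panel of 12 human primary cell co-culture systems (3C, 4H, LPS, SAg, BT, BF4T, BE3C, CASM3C, HDF3CGF, KF3CT, MyoF, Mphg). Compounds were added 1 h before stimulation and left for 24 h (MyoF 48 h; BT 72 h for soluble read-outs or 6 d for IgG). Biomarkers were read by ELISA, cytotoxicity by SRB, PBMC viability and proliferation by Alamar Blue. Each well value was divided by the mean of 8 DMSO control wells on the same plate and log10 transformed; duplicate blinded samples were tested at 4 concentrations.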

[2] = compound: C=C(C)C(=O)OCC(F)(F)C(F)(F)C(F)(F)F [2,2,3,3,4,4,4-Heptafluorobutyl methacrylate]; details: 2200 nM; in DMSO
Experimental: as §1

[3] = compound: FC(F)(F)C(F)(F)C(F)(F)C(F)(F)C(F)(F)C(F)(F)C(F)(F)CCI [1-Iodo-1H,1H,2H,2H-perfluorononane]; details: in DMSO
Experimental: as §1

[4] = compound: O=C(O)C(F)(F)OC(F)(F)C(F)(F)OC(F)(F)C(F)(F)C(F)(F)C(F)(F)F [Perfluoro-3,6-dioxadecanoic acid]; details: 2200 nM; in DMSO
Experimental: as §1

[5] = compound: FC(F)C(F)(F)COCC1CO1 [((2,2,3,3-Tetrafluoropropoxy)methyl)oxirane]; details: 2200 nM; in DMSO
Experimental: as §1

Perfluoroundecanoic acid = compound: O=C(O)C(F)(F)C(F)(F)C(F)(F)C(F)(F)C(F)(F)C(F)(F)C(F)(F)C(F)(F)C(F)(F)C(F)(F)F [Perfluoroundecanoic acid]; details: in DMSO
Experimental: as §1

Perfluorobutanoic acid = compound: O=C(O)C(F)(F)C(F)(F)C(F)(F)F [Perfluorobutanoic acid]; details: 2200 nM; in DMSO
Experimental: as §1

[6] = compound: O=C(O)C(F)(F)OC(F)(F)C(F)(F)OC(F)(F)C(=O)O [Perfluoro-3,6-dioxaoctane-1,8-dioic acid]; details: 2200 nM; in DMSO
Experimental: as §1

Perfluoropropanoic acid = compound: O=C(O)C(F)(F)C(F)(F)F [Perfluoropropanoic acid]; details: 2200 nM; in DMSO
Experimental: as §1

[7] = compound: O=S(=O)(Cl)C(F)(F)C(F)(F)C(F)(F)C(F)(F)C(F)(F)C(F)(F)C(F)(F)C(F)(F)F [Perfluoro-1-octanesulfonyl chloride]; details: 2200 nM; in DMSO
Experimental: as §1

[8] = compound: C=CC(=O)OCC(F)(F)C(F)(F)C(F)(F)C(F)(F)COC(=O)C=C [1H,1H,6H,6H-Perfluorohexane-1,6-diol diacrylate]; details: 2200 nM; in DMSO
Experimental: as §1

[9] = compound: O=C(O)C=CC(F)(C(F)(F)F)C(F)(F)F [3-(Perfluoroisopropyl)-2-propenoic acid]; details: in DMSO
Experimental: as §1

[10] = compound: O=C(O)C(F)(F)C(F)(F)C(F)(F)C(F)(F)C(F)(F)C(F)(F)C(F)(F)C(F)F [9-H-Perfluorononanoic acid]; details: 2200 nM; in DMSO
Experimental: as §1

[11] = compound: OCC(F)(F)C(F)(F)C(F)(F)C(F)(F)C(F)(F)C(F)(F)C(F)(F)C(F)(F)C(F)(F)C(F)(F)C(F)(F)F [11:1 Fluorotelomer alcohol]; details: in DMSO
Experimental: as §1

Perfluorooctanamide = compound: NC(=O)C(F)(F)C(F)(F)C(F)(F)C(F)(F)C(F)(F)C(F)(F)C(F)(F)F [Perfluorooctanamide]; details: 2200 nM; in DMSO
Experimental: as §1

[12] = compound: O=C(O)C(F)(F)C(F)(F)OC(F)(F)F [Perfluoro-3-methoxypropanoic acid]; details: 2200 nM; in DMSO
Experimental: as §1

[13] = compound: FC(F)(F)C(F)(F)C(F)(F)C(F)(F)C(F)(F)C(F)(F)C(F)(F)I [1-Iodopentadecafluoroheptane]; details: in DMSO
Experimental: as §1

[14] = compound: OCCC(F)(F)C(F)(F)C(F)(F)C(F)(F)C(F)(F)C(F)(F)C(F)(F)C(F)(F)F [8:2 Fluorotelomer alcohol]; details: 2200 nM; in DMSO
Experimental: as §1

Test System | level (log10) [1] | level (log10) [2] | level (log10) ([3]; 740 nM) | level (log10) ([3]; 2200 nM) | level (log10) ([3]; 6700 nM) | level (log10) ([3]; 20000 nM) | level (log10) [4] | level (log10) [5] | level (log10) (Perfluoroundecanoic acid; 740 nM) | level (log10) (Perfluoroundecanoic acid; 2200 nM) | level (log10) (Perfluorobutanoic acid) | level (log10) [6] | level (log10) (Perfluoropropanoic acid) | level (log10) [7] | level (log10) [8] | level (log10) ([9]; 2200 nM) | level (log10) ([9]; 6700 nM) | level (log10) ([9]; 20000 nM) | level (log10) ([9]; 60000 nM) | level (log10) [10] | level (log10) ([11]; 370 nM) | level (log10) ([11]; 1100 nM) | level (log10) ([11]; 3300 nM) | level (log10) ([11]; 10000 nM) | level (log10) (Perfluorooctanamide) | level (log10) [12] | level (log10) ([13]; 740 nM) | level (log10) ([13]; 2200 nM) | level (log10) ([13]; 6700 nM) | level (log10) ([13]; 20000 nM) | level (log10) [14]
KF3CT:uPA | 0.013 ± 0.021 | -0.0215 ± 0.0078 | -0.0035 ± 0.00071 | -0.0105 ± 0.0035 | 0.0025 ± 0.018 | 0.006 ± 0.016 | -0.0135 ± 0.0092 | -0.001 ± 0.0028 | -0.005 ± 0.0057 | 0.015 ± 0.014 | 0.0015 ± 0.0035 | 0.005 ± 0.0085 | 0.027 ± 0.0057 | 0.019 ± 0.024 | -0.0235 ± 0.005 | 0.006 ± 0.0057 | 0.0095 ± 0.0064 | 0.0045 ± 0.0078 | 0.004 ± 0.02 | -0.004 ± 0.011 | -0.0025 ± 0.033 | -0.0115 ± 0.015 | -0.0335 ± 0.00071 | -0.023 ± 0.016 | -0.0215 ± 0.025 | -0.0015 ± 0.018 | -0.013 ± 0.021 | -0.0105 ± 0.018 | -0.014 ± 0.013 | 0.0105 ± 0.044 | 0.0065 ± 0.0035
3C:CCL2/MCP-1 | 0.025 ± 0.031 | 0.004 ± 0.028 | 0.0195 ± 0.032 | -0.0135 ± 0.0064 | -0.005 | 0.019 ± 0.011 | 0.019 ± 0.0085 | 0.021 ± 0.0085 | 0.0275 ± 0.077 | -0.0075 ± 0.043 | -0.0045 ± 0.0078 | 0.0075 ± 0.029 | -0.0085 ± 0.015 | -0.003 ± 0.03 | 0.0365 ± 0.049 | 0.018 ± 0.035 | 0.0025 ± 0.022 | -0.009 ± 0.0014 | 0.019 ± 0.02 | 0.014 ± 0.027 | -0.001 ± 0.031 | -0.0005 ± 0.0064 | -0.007 ± 0.021 | 0.003 ± 0.04 | 0.022 ± 0.088 | 0.0075 ± 0.047 | -0.0025 ± 0.067 | -0.0275 ± 0.03 | -0.0175 ± 0.005 | 0.023 ± 0.027 | 0.0015 ± 0.018
KF3CT:CCL2/MCP-1 | 0.017 ± 0.021 | -0.0015 ± 0.0021 | 0.045 ± 0.05 | -0.0025 ± 0.0092 | 0.01 ± 0.03 | 0.0795 ± 0.07 | -0.003 ± 0.028 | 0.0195 ± 0.053 | 0.028 ± 0.014 | -0.0005 ± 0.013 | 0.0355 ± 0.056 | -0.024 ± 0.028 | -0.01 ± 0.014 | -0.028 ± 0.03 | -0.0515 ± 0.026 | 0.009 | -0.012 ± 0.017 | 0 ± 0.027 | 0.0105 ± 0.053 | 0.0065 ± 0.0092 | 0.003 ± 0.02 | 0.0265 ± 0.013 | 0.0205 ± 0.00071 | 0.0305 ± 0.00071 | -0.0035 ± 0.011 | -0.026 ± 0.027 | 0.0035 ± 0.037 | -0.004 ± 0.0071 | 0.0065 ± 0.0092 | 0.0015 ± 0.016 | -0.003 ± 0.082
BF4T:IL-1alpha | 0.012 ± 0.0057 | 0.005 ± 0.0014 | 0.0255 ± 0.021 | -0.0105 ± 0.0092 | -0.011 ± 0.0042 | 0.033 ± 0.031 | 0.018 ± 0.013 | 0.0075 ± 0.0064 | -0.008 ± 0.0071 | -0.009 ± 0.0014 | 0.013 ± 0.027 | -0.014 ± 0.021 | -0.011 ± 0.0071 | 0.0095 ± 0.023 | 0.033 ± 0.03 | 0.014 ± 0.023 | -0.002 ± 0.021 | 0.0065 ± 0.011 | 0.012 ± 0.0057 | 0.009 ± 0.021 | -0.007 ± 0.027 | -0.016 ± 0.0014 | -0.0125 ± 0.013 | 0.0025 ± 0.0021 | 0.015 ± 0.024 | 0.0015 ± 0.0092 | 0.0095 ± 0.016 | 0.003 ± 0.0057 | -0.0035 ± 0.0035 | 0.003 ± 0.0014 | 0.0085 ± 0.021
KF3CT:SRB | -0.001 ± 0.0057 | 0.009 ± 0.018 | 0.0065 ± 0.0021 | 0.002 | 0.0005 ± 0.005 | 0.005 ± 0.013 | -0.0155 ± 0.0021 | -0.0075 ± 0.0035 | 0.003 ± 0.0057 | 0.0015 ± 0.005 | 0.0105 ± 0.023 | -0.0105 ± 0.00071 | 0.0055 ± 0.019 | 0.0105 ± 0.013 | 0.0015 ± 0.0092 | -0.001 ± 0.018 | -0.005 | -0.009 ± 0.0014 | 0.002 ± 0.013 | 0.002 ± 0.025 | 0.0015 ± 0.022 | -0.01 ± 0.0057 | -0.0285 ± 0.005 | -0.014 ± 0.0057 | 0.0015 ± 0.013 | -0.0035 ± 0.0035 | 0.0005 ± 0.0064 | 0.0005 ± 0.0078 | 0.0015 ± 0.0064 | 0.005 ± 0.0057 | 0.0215 ± 0.019
MyoF:PAI-I | -0.0055 ± 0.005 | -0.0075 ± 0.012 | 0.0005 ± 0.023 | 0.0105 ± 0.013 | -0.002 ± 0.02 | -0.0025 ± 0.0035 | 0.001 ± 0.0071 | -0.01 ± 0.0028 | 0.015 ± 0.0099 | 0.0095 ± 0.0035 | -0.002 ± 0.0099 | 0.0025 ± 0.03 | -0.008 ± 0.0057 | -0.023 ± 0.02 | -0.0135 ± 0.011 | -0.0025 ± 0.025 | 0.0125 ± 0.0078 | 0.007 ± 0.0099 | 0.009 ± 0.0014 | 0.0095 ± 0.016 | 0.005 ± 0.0014 | 0.009 ± 0.0042 | 0.014 ± 0.013 | 0.0205 ± 0.0064 | -0.009 ± 0.0057 | 0.0045 ± 0.016 | -0.003 ± 0.025 | -0.013 ± 0.024 | -0.013 ± 0.016 | -0.075 | 0.0045 ± 0.021
MyoF:alpha-SM Actin | 0.006 ± 0.033 | 0.002 ± 0.086 | -0.001 ± 0.0028 | 0.0055 ± 0.0078 | -0.016 ± 0.02 | -0.0435 ± 0.0035 | -0.051 ± 0.027 | -0.035 ± 0.028 | 0.009 ± 0.0099 | 0.012 ± 0.0085 | -0.0105 ± 0.037 | 0.018 ± 0.04 | -0.0275 ± 0.04 | 0.028 ± 0.016 | -0.0285 ± 0.00071 | 0.0245 ± 0.04 | 0.0065 ± 0.021 | 0 ± 0.054 | 0.0245 ± 0.011 | 0.001 ± 0.0042 | 0.0125 ± 0.056 | -0.0025 ± 0.015 | -0.0195 ± 0.03 | 0.0045 ± 0.018 | -0.0015 ± 0.0035 | 0.013 ± 0.052 | 0.0205 ± 0.0021 | -0.036 ± 0.0099 | -0.115 ± 0.016 | -0.291 ± 0.045 | 0.006 ± 0.068
